Data from the supplement of paper PMC10849652.
Some of the results follow.

Amino acid sequences for entries named in this document (tags omitted). A change or cut given only in a name is not applied to a line headed by its entry.
UniProt Q9UPN4: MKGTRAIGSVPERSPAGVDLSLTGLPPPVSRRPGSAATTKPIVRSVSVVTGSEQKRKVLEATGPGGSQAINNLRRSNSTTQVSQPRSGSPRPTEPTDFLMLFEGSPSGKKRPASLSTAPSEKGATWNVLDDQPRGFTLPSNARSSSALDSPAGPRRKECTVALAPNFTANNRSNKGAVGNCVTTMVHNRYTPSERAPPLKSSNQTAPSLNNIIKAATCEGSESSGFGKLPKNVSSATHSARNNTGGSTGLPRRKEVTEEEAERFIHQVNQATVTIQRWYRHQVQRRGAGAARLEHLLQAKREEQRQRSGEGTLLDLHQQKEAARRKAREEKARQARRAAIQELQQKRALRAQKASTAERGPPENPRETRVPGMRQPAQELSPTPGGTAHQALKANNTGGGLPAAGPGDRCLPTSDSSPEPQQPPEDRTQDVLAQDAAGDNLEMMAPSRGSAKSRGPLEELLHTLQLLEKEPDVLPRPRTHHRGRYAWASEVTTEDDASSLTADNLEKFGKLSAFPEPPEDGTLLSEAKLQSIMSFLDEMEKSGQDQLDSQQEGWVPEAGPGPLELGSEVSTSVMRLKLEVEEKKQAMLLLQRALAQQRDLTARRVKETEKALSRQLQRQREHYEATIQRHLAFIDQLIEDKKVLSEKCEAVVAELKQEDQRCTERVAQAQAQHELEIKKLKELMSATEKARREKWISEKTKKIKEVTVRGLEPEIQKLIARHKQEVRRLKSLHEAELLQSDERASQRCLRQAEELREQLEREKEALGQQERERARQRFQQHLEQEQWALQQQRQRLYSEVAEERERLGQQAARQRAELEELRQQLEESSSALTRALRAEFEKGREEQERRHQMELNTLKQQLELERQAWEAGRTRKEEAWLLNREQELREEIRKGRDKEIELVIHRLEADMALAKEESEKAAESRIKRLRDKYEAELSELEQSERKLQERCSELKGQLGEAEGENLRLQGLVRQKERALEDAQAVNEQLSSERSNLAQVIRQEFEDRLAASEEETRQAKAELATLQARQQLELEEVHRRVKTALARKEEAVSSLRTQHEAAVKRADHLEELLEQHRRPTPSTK
UniProt Q99618: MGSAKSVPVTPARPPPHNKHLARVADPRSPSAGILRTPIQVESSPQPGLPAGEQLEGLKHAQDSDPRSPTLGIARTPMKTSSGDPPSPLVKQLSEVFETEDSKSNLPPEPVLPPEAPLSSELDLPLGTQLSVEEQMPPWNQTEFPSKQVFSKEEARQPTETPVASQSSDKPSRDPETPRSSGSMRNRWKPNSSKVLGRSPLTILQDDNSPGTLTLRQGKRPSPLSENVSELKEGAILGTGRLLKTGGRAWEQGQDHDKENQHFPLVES
UniProt Q9HD42: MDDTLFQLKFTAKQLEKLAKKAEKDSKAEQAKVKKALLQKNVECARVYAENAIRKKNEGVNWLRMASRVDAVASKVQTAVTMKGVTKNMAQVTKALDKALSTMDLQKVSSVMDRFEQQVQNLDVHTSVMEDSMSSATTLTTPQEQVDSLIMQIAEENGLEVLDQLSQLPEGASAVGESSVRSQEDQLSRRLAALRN
UniProt Q5VT06: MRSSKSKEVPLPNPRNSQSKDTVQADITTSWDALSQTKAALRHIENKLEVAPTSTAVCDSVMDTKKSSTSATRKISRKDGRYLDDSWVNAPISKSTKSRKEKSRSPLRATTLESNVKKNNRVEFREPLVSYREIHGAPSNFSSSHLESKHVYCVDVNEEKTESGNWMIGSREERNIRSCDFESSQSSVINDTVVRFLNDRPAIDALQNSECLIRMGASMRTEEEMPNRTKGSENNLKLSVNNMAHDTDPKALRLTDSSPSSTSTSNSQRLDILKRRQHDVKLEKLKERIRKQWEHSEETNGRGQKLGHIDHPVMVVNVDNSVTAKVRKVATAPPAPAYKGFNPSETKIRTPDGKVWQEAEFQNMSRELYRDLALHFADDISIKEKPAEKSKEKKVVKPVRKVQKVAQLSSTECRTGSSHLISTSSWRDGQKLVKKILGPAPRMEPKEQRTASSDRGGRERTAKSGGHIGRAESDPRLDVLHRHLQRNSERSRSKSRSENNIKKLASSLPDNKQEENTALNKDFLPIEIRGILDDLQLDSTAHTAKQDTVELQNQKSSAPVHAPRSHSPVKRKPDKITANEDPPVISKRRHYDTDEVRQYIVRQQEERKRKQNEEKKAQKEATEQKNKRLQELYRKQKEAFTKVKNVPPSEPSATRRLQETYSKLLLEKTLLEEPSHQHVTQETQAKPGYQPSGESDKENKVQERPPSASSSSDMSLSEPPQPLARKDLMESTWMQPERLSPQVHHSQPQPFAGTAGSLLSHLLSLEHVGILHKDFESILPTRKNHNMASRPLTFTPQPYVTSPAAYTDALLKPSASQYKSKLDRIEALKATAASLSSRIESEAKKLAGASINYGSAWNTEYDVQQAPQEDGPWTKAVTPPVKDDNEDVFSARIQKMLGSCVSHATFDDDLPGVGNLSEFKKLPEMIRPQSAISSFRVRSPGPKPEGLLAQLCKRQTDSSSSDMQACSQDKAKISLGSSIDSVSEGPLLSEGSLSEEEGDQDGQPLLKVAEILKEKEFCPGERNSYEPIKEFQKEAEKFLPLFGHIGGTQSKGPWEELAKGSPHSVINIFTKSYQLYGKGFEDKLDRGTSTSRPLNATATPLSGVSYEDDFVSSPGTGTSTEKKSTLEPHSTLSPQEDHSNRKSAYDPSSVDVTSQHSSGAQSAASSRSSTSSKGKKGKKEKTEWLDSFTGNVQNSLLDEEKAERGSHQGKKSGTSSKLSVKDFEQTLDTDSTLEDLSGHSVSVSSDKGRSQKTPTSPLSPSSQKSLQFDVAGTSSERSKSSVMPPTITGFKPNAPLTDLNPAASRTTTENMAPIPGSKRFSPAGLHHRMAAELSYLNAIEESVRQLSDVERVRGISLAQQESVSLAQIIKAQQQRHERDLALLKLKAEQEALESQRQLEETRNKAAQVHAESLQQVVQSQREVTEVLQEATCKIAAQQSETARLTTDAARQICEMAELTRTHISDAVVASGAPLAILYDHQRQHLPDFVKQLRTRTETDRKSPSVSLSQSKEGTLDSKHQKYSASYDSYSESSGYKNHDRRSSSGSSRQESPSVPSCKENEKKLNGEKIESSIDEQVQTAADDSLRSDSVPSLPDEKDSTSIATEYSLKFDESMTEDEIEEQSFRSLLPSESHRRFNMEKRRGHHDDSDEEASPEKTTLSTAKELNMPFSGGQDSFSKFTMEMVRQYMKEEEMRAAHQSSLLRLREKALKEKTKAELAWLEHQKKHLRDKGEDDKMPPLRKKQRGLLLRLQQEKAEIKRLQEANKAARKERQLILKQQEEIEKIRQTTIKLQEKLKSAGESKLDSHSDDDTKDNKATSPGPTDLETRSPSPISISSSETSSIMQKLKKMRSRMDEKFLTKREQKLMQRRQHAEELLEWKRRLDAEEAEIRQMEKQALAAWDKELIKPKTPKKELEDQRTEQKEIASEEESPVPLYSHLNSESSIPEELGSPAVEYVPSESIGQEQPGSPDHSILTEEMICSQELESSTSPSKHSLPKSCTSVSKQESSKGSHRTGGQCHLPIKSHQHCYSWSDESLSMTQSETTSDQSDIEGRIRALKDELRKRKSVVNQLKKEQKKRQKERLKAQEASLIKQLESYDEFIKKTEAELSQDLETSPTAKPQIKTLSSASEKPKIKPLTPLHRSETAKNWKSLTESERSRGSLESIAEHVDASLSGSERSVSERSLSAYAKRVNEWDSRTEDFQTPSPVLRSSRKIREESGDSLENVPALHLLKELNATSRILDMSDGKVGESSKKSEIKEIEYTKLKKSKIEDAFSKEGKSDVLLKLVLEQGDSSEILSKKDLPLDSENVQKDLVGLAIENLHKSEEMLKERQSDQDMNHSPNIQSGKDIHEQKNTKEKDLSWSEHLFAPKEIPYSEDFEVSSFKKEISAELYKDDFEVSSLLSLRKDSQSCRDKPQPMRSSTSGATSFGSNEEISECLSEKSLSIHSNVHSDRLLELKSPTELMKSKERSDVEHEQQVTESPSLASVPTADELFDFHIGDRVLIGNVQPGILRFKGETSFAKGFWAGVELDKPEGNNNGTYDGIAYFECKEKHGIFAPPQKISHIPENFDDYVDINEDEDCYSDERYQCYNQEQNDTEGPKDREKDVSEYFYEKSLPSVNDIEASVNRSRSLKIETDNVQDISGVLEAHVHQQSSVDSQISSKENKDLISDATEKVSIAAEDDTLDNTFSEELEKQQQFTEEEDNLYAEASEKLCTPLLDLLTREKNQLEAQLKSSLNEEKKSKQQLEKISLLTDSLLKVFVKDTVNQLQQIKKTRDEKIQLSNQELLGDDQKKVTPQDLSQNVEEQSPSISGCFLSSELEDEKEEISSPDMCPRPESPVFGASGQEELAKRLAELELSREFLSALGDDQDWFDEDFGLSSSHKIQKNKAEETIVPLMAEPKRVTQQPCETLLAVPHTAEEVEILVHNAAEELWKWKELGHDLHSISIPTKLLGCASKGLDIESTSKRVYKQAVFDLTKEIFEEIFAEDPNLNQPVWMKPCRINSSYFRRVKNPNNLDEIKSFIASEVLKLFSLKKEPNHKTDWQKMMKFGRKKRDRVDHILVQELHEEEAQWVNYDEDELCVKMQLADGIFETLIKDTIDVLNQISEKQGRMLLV
UniProt Q00535, whole entry, looked up: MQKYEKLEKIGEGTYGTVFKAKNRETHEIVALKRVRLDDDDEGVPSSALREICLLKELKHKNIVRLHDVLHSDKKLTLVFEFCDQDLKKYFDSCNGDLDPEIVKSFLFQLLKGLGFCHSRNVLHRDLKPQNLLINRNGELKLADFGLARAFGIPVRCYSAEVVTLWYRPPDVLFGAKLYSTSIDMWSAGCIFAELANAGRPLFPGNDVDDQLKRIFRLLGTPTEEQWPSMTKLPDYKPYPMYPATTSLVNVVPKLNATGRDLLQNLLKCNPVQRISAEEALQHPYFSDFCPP
UniProt Q15517: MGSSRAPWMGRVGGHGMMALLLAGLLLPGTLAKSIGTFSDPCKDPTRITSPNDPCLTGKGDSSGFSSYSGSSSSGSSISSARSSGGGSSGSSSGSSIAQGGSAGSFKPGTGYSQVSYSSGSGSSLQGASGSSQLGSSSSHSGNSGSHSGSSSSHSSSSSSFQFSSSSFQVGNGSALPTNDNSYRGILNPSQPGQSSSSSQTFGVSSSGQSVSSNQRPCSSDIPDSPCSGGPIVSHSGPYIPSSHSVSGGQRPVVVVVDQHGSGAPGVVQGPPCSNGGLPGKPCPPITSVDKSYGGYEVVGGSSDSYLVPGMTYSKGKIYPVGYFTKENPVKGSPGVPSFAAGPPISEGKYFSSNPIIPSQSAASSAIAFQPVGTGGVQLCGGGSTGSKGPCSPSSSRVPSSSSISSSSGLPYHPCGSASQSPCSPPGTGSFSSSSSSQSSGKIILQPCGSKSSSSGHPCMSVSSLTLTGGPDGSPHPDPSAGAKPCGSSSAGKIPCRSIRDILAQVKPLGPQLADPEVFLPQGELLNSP
UniProt Q00534, whole entry, looked up: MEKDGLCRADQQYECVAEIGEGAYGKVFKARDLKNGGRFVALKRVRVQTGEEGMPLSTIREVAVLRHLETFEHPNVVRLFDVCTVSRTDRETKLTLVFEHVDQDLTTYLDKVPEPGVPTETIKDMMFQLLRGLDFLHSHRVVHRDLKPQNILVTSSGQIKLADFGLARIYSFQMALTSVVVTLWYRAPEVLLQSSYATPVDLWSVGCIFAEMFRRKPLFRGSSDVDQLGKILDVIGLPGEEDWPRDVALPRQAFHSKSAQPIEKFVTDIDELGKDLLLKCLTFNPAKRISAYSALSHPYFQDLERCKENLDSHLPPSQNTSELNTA
UniProt Q96G23: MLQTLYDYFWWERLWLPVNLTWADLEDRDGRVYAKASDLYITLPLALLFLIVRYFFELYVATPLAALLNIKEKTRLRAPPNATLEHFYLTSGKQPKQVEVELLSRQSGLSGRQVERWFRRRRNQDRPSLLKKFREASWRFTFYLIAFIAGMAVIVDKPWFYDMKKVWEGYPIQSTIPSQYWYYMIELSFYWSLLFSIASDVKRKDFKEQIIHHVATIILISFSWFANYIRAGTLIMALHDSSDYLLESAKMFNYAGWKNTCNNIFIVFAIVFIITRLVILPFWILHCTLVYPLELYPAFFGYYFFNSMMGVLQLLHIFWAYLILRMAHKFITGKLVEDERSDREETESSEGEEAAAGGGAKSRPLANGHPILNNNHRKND
UniProt P11802: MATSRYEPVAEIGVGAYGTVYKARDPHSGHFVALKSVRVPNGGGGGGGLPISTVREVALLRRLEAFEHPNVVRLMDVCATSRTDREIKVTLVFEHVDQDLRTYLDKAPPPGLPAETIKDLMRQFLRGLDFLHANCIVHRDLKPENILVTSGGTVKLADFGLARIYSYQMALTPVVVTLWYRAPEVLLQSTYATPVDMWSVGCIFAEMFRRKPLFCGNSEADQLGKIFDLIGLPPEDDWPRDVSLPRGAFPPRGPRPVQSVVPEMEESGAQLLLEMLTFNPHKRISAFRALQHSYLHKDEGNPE

Experiments:
Assay in all cases: log2 fold change, soluble protein after heating vs DMSO (PISA); higher = thermal stabilisation; K562 cells, 10 uM, 30 min; active = over 0.2 and 3.5 SD of the protein, either way, in both replicates (recomputed)
saracatinib = compound: CN1CCN(CCOc2cc(OC3CCOCC3)c3c(Nc4c(Cl)ccc5c4OCO5)ncnc3c2)CC1 [saracatinib]
How it was run: (§1)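 K562 cells at 2×10^6 cells/mL were given 10 μM compound for 30 min. Aliquots then went through 3 min of heating across 48°C-58°C, were pooled, and were extracted in PBS with 0.5% NP-40 at 4°C, and the supernatant after 21,000xg for 90 min was quantified by TMTpro 16plex LC-MS/MS with channel sums equalised. Thermal stability relative to control samples, from duplicates, is given as log2 fold change.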

sotrastaurin = compound: CN1CCN(c2nc(C3=C(c4c[nH]c5ccccc45)C(=O)NC3=O)c3ccccc3n2)CC1 [sotrastaurin]
How it was run: as §1

alvocidib = compound: CN1CC[C@H](c2c(O)cc(O)c3c(=O)cc(-c4ccccc4Cl)oc23)[C@H](O)C1 [alvocidib]
How it was run: as §1

Tubastatin A = compound: CN1CCc2c(c3ccccc3n2Cc2ccc(C(=O)NO)cc2)C1 [Tubastatin A]
How it was run: as §1

[1] = compound: CNC(=O)C1=CC=CC=C1NC2=NC(=NC=C2Cl)NC3=C(C=C(C=C3)N4CCOCC4)OC
How it was run: as §1

[2] = compound: CNc1nc(-c2ccc3c(N)n[nH]c3c2)cc(N2C[C@@H](C(=O)NC3CCCCC3)CC[C@H]2C)n1
How it was run: as §1

defactinib = compound: CNC(=O)c1ccc(Nc2ncc(C(F)(F)F)c(NCc3nccnc3N(C)S(C)(=O)=O)n2)cc1 [defactinib]
How it was run: as §1

rucaparib = compound: CNCc1ccc(-c2[nH]c3cc(F)cc4c3c2CCNC4=O)cc1 [rucaparib]
How it was run: as §1

encorafenib = compound: COC(=O)N[C@@H](C)CNc1nccc(-c2cn(C(C)C)nc2-c2cc(Cl)cc(NS(C)(=O)=O)c2F)n1 [encorafenib]
How it was run: as §1

[3] = compound: COC(=O)[C@H](CCSC)NC(=O)C1=C(C=C(C=C1)NC[C@H](CS)N)C2=CC=CC=C2
How it was run: as §1

Target	log2 fold change (saracatinib)	log2 fold change (sotrastaurin)	log2 fold change (alvocidib)	log2 fold change (Tubastatin A)	log2 fold change [1]	log2 fold change [2]	log2 fold change (defactinib)	log2 fold change (rucaparib)	log2 fold change (encorafenib)	log2 fold change [3]
CEP131 (UniProt Q9UPN4)	inactive: -0.18	inactive: 0.07	inactive: 0.061	inactive: 0.069	inactive: -0.074	inactive: -0.14				
CDCA3 (UniProt Q99618)	inactive: -0.033	inactive: 0.072	inactive: -0.017	inactive: 0	inactive: -0.008	inactive: -0.019	inactive: 0.009	inactive: 0.005	inactive: -0.051	inactive: 0.006
CFAP20 (UniProt Q9Y6A4)	inactive: -0.054	inactive: 0.029	inactive: 0.129	inactive: 0.045	inactive: -0.007	inactive: 0.026	inactive: 0.046	inactive: 0.145	inactive: 0.097	inactive: 0.027
CHD4 isoform 2 (UniProt Q14839)	inactive: -0.006	inactive: -0.25		inactive: 0.03	inactive: 0	inactive: 0.041	inactive: -0.247	inactive: 0.043	inactive: 0.133	inactive: 0.017
CENPQ (UniProt Q7L2Z9)	inactive: -0.065	inactive: 0.182	inactive: 0.174	inactive: 0.256	inactive: 0.134	inactive: -0.081				
CDC42BPA isoform 6 (UniProt Q5VT25)	inactive: -0.093	active: -0.47	active: -0.688	inactive: 0.022	inactive: -0.037	inactive: -0.031	inactive: -0.183	inactive: 0.088	inactive: 0.06	inactive: -0.064
CDC42BPB (UniProt Q9Y5S2)	inactive: -0.089	inactive: -0.152		inactive: 0.055	inactive: 0.021	inactive: -0.046	inactive: -0.119	inactive: 0.146	inactive: -0.029	inactive: -0.032
CHCHD6 (UniProt Q9BRQ6)	inactive: -0.057	inactive: 0.025	inactive: -0.028	inactive: -0.052	inactive: -0.035	inactive: -0.069	inactive: -0.073			inactive: -0.169
CDC45 isoform 3 (UniProt O75419)	inactive: -0.313	inactive: -0.28	inactive: -0.251	inactive: 0.15		inactive: 0.17		inactive: -0.051	inactive: 0.243	
CHMP1A (UniProt Q9HD42)	inactive: 0.031	inactive: 0.005	inactive: -0.031	inactive: -0.024	inactive: -0.023	inactive: -0.013	inactive: 0.002	inactive: -0.014	inactive: -0.037	inactive: 0.054
CGGBP1 (UniProt Q9UFW8)	inactive: -0.004	inactive: -0.003	inactive: -0.006	inactive: -0.006	inactive: 0.047	inactive: -0.008	inactive: -0.006	inactive: 0.046	inactive: 0.026	inactive: 0.028
CEP350 (UniProt Q5VT06)	inactive: -0.173	inactive: -0.242	inactive: 0.153	inactive: 0.071		inactive: 0.098		inactive: 0.219	inactive: 0.267	
CDK17 isoform 2 (UniProt Q00537)	inactive: 0.008	inactive: -0.036	active: 0.602		inactive: -0.017	inactive: 0.06	inactive: 0.11	inactive: 0.494	inactive: -0.027	inactive: 0.014
CFAP97 (UniProt Q9P2B7)	inactive: -0.059	inactive: -0.018	inactive: 0.146	inactive: 0	inactive: -0.018	inactive: 0.059	inactive: 0.059			inactive: 0.038
CDK5 (UniProt Q00535)	inactive: -0.008	inactive: 0.094		inactive: -0.013	inactive: 0.029	inactive: 0.006	inactive: 0.143	inactive: 0.05	inactive: 0.049	inactive: -0.042
CDSN (UniProt Q15517)	inactive: -0.902	inactive: -0.063	inactive: -0.269	inactive: 0.035		inactive: 0.211	inactive: -0.056	inactive: -0.289	inactive: -0.682	inactive: -0.099
CETN3 (UniProt O15182)	inactive: -0.027	inactive: -0.022		inactive: 0.015	inactive: 0.128	inactive: -0.003	inactive: -0.008	inactive: -0.006	inactive: -0.021	inactive: 0.082
CHMP4B (UniProt Q9H444)	inactive: 0.021	inactive: -0.061		inactive: -0.024	inactive: -0.026	inactive: -0.019	inactive: -0.017	inactive: 0.02	inactive: -0.055	inactive: 0.054
CDKN1B (UniProt P46527)	inactive: 0.29	inactive: 0.129			inactive: -0.247	inactive: -0.298	inactive: 0.163			inactive: 0.028
CHD3 isoform 3 (UniProt Q12873)	inactive: -0.067	inactive: -0.312		inactive: 0.096	inactive: -0.029	inactive: -0.024	inactive: -0.253	inactive: 0.134	inactive: 0.136	inactive: -0.087
CES2 isoform 4 (UniProt O00748)	inactive: 0.04	inactive: 0.196		inactive: 0.115	inactive: 0.247	inactive: 0.218	inactive: -0.164	inactive: 0.3	inactive: -0.145	inactive: 0.044
CDK6 (UniProt Q00534)	inactive: 0.002	inactive: -0.005		inactive: 0.022	inactive: 0.016	inactive: -0.02	inactive: -0.029	inactive: 0.065	inactive: 0.011	inactive: 0.004
CERS2 (UniProt Q96G23)	inactive: 0.012	inactive: -0.033		inactive: -0.056	inactive: -0.121	inactive: -0.048	inactive: -0.001	inactive: 0.002	inactive: 0.017	inactive: 0.03
CHKA (UniProt P35790)	inactive: 0.028	inactive: 0.107		inactive: 0.148	inactive: -0.033	inactive: -0.027	inactive: 0.006	inactive: 0.046	inactive: -0.107	inactive: 0.056
CHMP4C (UniProt Q96CF2)	inactive: 0	inactive: 0.042		inactive: -0.009	inactive: -0.173	inactive: -0.138	inactive: -0.047	inactive: -0.032	inactive: -0.097	inactive: 0.007
CDK4 (UniProt P11802)	inactive: -0.03	inactive: -0.028			inactive: 0.07	inactive: -0.057	inactive: -0.039	inactive: 0.051	inactive: -0.008	inactive: -0.07
CHCHD1 (UniProt Q96BP2)	inactive: -0.069	inactive: 0.059		inactive: -0.025	inactive: 0.132	inactive: 0.04	inactive: 0.017	inactive: 0.114	inactive: -0.037	inactive: -0.024

Reprinted at random: two entries already listed
Target	log2 fold change (saracatinib)	log2 fold change (sotrastaurin)	log2 fold change (alvocidib)	log2 fold change (Tubastatin A)	log2 fold change [1]	log2 fold change [2]	log2 fold change (defactinib)	log2 fold change (rucaparib)	log2 fold change (encorafenib)	log2 fold change [3]
CGGBP1 (UniProt Q9UFW8)	inactive: -0.004	inactive: -0.003	inactive: -0.006	inactive: -0.006	inactive: 0.047	inactive: -0.008	inactive: -0.006	inactive: 0.046	inactive: 0.026	inactive: 0.028
CDCA3 (UniProt Q99618)	inactive: -0.033	inactive: 0.072	inactive: -0.017	inactive: 0	inactive: -0.008	inactive: -0.019	inactive: 0.009	inactive: 0.005	inactive: -0.051	inactive: 0.006
